Data: PubChem BioAssay AID504648 (National Center for Advancing Translational Sciences (NCATS), 2011)
Screen size: about 390,000 compounds; about 610 (0.16%) were called active. Inconclusive means that the source gave no clear call. Such entries were picked first, then a sample of the others. The call rests on the fitted dose curve; in most records, active means well fitted inhibition curve with a large enough effect; inconclusive means small, poorly fitted or top-dose-only effect, or effect the other way, or another doubt; inactive means no such curve, though single readings can be large or run the other way. Where the call is inconclusive, the potency comes from a doubtful curve fit.
On the % scale 0 is the no-effect control and ±100 the full control effect; potency means the concentration at half of the fitted maximal effect.

Test: Nrf2 qHTS screen for inhibitors: counterscreen for cytotoxicity
Conditions: A549 ARE-Fluc cells, CellTiter-Fluor viability, 18-24 h; activity change, negative = cytotoxicity: at 46 µM (top of the series)
Procedure, shortened: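 A549 ARE_Fluc cells in 5% FBS OPTI-MEM were exposed to compounds in concentration-response for 18-24 h at 37 deg C. Viability was read by CellTiter-Fluor fluorescence (Ex 405/Em 525) after 30 min, before the luciferase read.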
For `CN(C)S(=O)(=O)c1ccc(Cl)c(NC(=O)CN2CCN(Cc3ccc4c(c3)OCO4)CC2)c1`, the Potency was “inactive”. In the case of `Cc1cc(C)c(S(=O)(=O)N2CCN(c3ccc([N+](=O)[O-])c(NCC4CCCO4)c3)CC2)c(C)c1` (stereo unspecified), the Potency is reported as inconclusive: 5.8 µM [falling, single point]. For `Cc1cc(O)c(N)c(C)c1Cl`, the Potency was “inactive”. For `O=C(Nc1cccs1)Nc1ccc(F)cc1F`, the Potency was “inactive”. For `CSc1ccc(CCNC(=O)c2cccc3c2C(=O)N(C2CCCCC2)C3)cc1`, the Potency was inconclusive: 23.1 µM [falling, partial curve, poor fit]. For `CCc1ccc(OCCNC(=O)c2cc(SC)ccc2Cl)cc1`, the Potency was inconclusive: 25.9 µM [activator, partial curve, poor fit]. With `Brc1cccc(CNc2nc3ccccc3n2CCN2CCCCC2)c1` the Potency was inconclusive: 23.1 µM [falling, single point]. For `COc1ccc(-n2ccnc(NCc3cccs3)c2=O)cc1OC`, the Potency was “inactive”. For `CCC(=O)N1CCc2cc(S(=O)(=O)NCCC(=O)N3CCN(c4ccccc4)CC3)ccc21`, the Potency was “inactive”. For `COc1cccc(C(NC(C)=O)c2ccc3cccnc3c2O)c1` (stereo unspecified), the Potency was “inactive”. For `O=C(NCCCn1ccnc1)c1cc(-c2ccc(Br)cc2)on1`, the Potency was inconclusive: 23.1 µM [activator, partial curve, poor fit]. In the case of `COc1ccc(C2=C(Nc3ccc(Br)c(C)c3)c3ccccc3C2=O)cc1`, the Potency is reported as inconclusive: 20.6 µM [falling, single point]. With `CN(C)CCOc1nc(-c2ccccc2)nc2c1oc1ccccc12` the Potency was inconclusive: 16.4 µM [falling, single point]. For `COc1cccc(C(=O)Nc2nc(-c3ccncc3)cs2)c1`, the Potency was “inactive”. In the case of `Cc1nn(C(C)C(=O)NC2CCC(C)CC2)c(=O)c2c1sc1ccccc12` (stereo unspecified), the Potency is reported as inconclusive: 6.51 µM [falling, partial curve, poor fit]. For `Oc1cc(NCCN2CCOCC2)cc2cccnc12`, the Potency was inconclusive: 18.4 µM [falling, single point]. For `O=C(NCc1ccccc1)c1nc(S(=O)(=O)Cc2ccc(F)cc2)ncc1Cl`, the Potency was inconclusive: 18.4 µM [falling, single point]. For `CCN(CC)C(=O)c1ccc2c(c1)N(Cc1c(F)cccc1Cl)C(=O)c1ccccc1S2`, the Potency was “inactive”. In the case of `O=C1CC(N2C(=O)/C(=C/C=C/c3ccccc3)SC2=S)C(=O)N1c1ccccc1` (stereo unspecified), the Potency is reported as inconclusive: 14.6 µM [falling, single point]. In the case of `COc1cc2[nH]c(=O)n(CCCCCC(=O)N3CC=C(c4ccccc4)CC3)c(=O)c2cc1OC`, the Potency is reported as inconclusive: 16.4 µM [falling, single point]. In the case of `CCCC(C(=O)Nc1cccc(S(=O)(=O)N2CCCC2)c1)c1ccccc1` (stereo unspecified), the Potency is reported as inconclusive: 29.1 µM [falling, single point]. In the case of `CC(OC(=O)c1cccnc1SCc1cc(=O)n2ccccc2n1)c1ccccn1` (stereo unspecified), the Potency is reported as “inactive”. In the case of `O=C(N/N=C/c1ccc[nH]1)c1ccc(Cl)cc1`, the Potency is reported as inconclusive: 20.6 µM [falling, partial curve, poor fit]. With `CN(Cc1ccccc1)c1nnc(NC(=O)Nc2cccc(Br)c2)s1` the Potency was inconclusive: 29.1 µM [activator, partial curve, poor fit]. For `Cc1cc(N2CCCCC2)nc(N2CCOCC2)n1`, the Potency was inconclusive: 2.91 µM [activator, partial curve]. For `Cc1cccc(Nc2nnc(SCC(=O)NC(=O)Nc3ccc4c(c3)OCCO4)s2)c1`, the Potency was inconclusive: 29.1 µM [falling, single point]. With `C=CCn1c(SCc2c(C)noc2C)nc2sc3c(c2c1=O)CCCC3` the Potency was inconclusive: 11.6 µM [falling, partial curve]. In the case of `CCS(=O)(=O)N1CCN(c2ccc([N+](=O)[O-])c(NCc3cccnc3)c2)CC1`, the Potency is reported as inconclusive: 16.4 µM [falling, single point]. With `CCCC(=O)N1N=C(c2ccccc2)CC1c1cn(C)c2ccccc12` (stereo unspecified) the Potency was “inactive”. With `Nc1[nH]n2c(=O)cc(-c3ccccc3)nc2c1N=Nc1ccccc1` the Potency was inconclusive: 23.1 µM [falling, single point]. For `O=C(CCCN1C(=O)/C(=C/c2ccccc2Cl)SC1=S)NNC(=O)c1ccc(Cl)cc1Cl`, the Potency was “inactive”. In the case of `CCc1ccc(OCC(=O)NNC(=O)CSc2ncnc3sc(C)c(C)c23)cc1`, the Potency is reported as inconclusive: 16.4 µM [falling, partial curve, poor fit]. For `COc1ccc(C(=O)Nc2ccc3nc4c(c(Nc5ccc(OC)c(OC)c5)c3c2)CCCC4)c(OC)c1`, the activity change, negative = cytotoxicity was inconclusive: -40.6% [activator]. For `Cc1ccc(-n2cc(CNCCCn3ccnc3C)c(-c3ccc(F)cc3)n2)cc1`, the Potency was active: 25.9 µM. In the case of `Cc1ccc(C)c(NC(=S)NCCSc2ccc(Cl)cc2)c1`, the Potency is reported as inconclusive: 23.1 µM [activator, partial curve, poor fit]. In the case of `COc1ccc(OC)c(N(CC(=O)N2CCN(c3cc(Cl)ccc3C)CC2)S(C)(=O)=O)c1`, the Potency is reported as inconclusive: 14.6 µM [falling, single point]. For `Cn1c(=O)c([N+](=O)[O-])c(Cl)c2ccccc21`, the Potency was active: 20.6 µM. For `CCOc1ccc2[nH]c(=O)c(CN(CCc3ccccc3)C(=O)N3CCOCC3)cc2c1`, the Potency was inconclusive: 20.6 µM [activator, partial curve, poor fit]. In the case of `CN(c1ccccc1)S(=O)(=O)c1ccc(C(=O)Nc2nnc(C3CC3)o2)cc1`, the Potency is reported as inconclusive: 9.2 µM [activator, partial curve, poor fit]. For `COc1ccccc1C1C2=C(CC(C)(C)CC2=O)N(CC(=O)O)C2=C1C(=O)CC(C)(C)C2`, the Potency was inconclusive: 14.6 µM [activator, single point]. For `CNC(=O)CC12CC3CC(CC(C3)C1)C2`, the Potency was “inactive”. With `C=CC(=O)Nc1cccc(Oc2ccnc3[nH]ccc23)c1` the Potency was inconclusive: 13 µM [falling, single point]. With `Cc1ccsc1C(=O)OCC(=O)NCC1CCCO1` (stereo unspecified) the Potency was “inactive”. For `O=C(NCCC1CCCCN1S(=O)(=O)c1ccc(F)cc1)C(=O)NCc1cccnc1` (stereo unspecified), the Potency was “inactive”. With `O=C(NCc1ccc(Cl)cc1)C(=O)Nc1cccc(Br)c1` the Potency was inconclusive: 32.6 µM [activator, partial curve, poor fit]. With `Cc1ccc(C2(C)CC(C)(C)N(C(=O)CSc3nnc(C)s3)c3ccccc32)cc1` (stereo unspecified) the Potency was inconclusive: 20.6 µM [falling, single point]. In the case of `C=CC(C)(C)c1c(O)c(CC=C(C)C)c(O)c2c(=O)c3ccc(O)c(O)c3oc12`, the Potency is reported as inconclusive: 16.4 µM [falling, single point]. For `Cc1cc(Nc2nnnn2-c2ccccc2)n(-c2ccc(Cl)cc2)n1`, the Potency was inconclusive: 23.1 µM [falling, partial curve, poor fit]. In the case of `COc1cc(C(=O)ON=C2C3CC4CC(C3)CC2C4)cc(OC)c1OC`, the Potency is reported as inconclusive: 16.4 µM [falling, single point]. In the case of `CCOC(=O)C1=C(c2ccccc2)NC(SCC(=O)Nc2cccc(C)c2)=C(C#N)C1c1ccco1` (stereo unspecified), the Potency is reported as active: 13 µM. In the case of `Cc1cc(N2CCN(C)CC2)nc2ccc(NC(=O)Nc3ccccc3)cc12`, the Potency is reported as inconclusive: 25.9 µM [falling, partial curve, poor fit]. With `COc1ccc(N(C)S(=O)(=O)c2cccc(C(=O)OCC(=O)N3CC(C)CC(C)C3)c2)cc1` (stereo unspecified) the Potency was inconclusive: 10.3 µM [falling, partial curve, poor fit]. With `CCC1CCCCN1S(=O)(=O)c1ccc(N2CCCCS2(=O)=O)cc1` (stereo unspecified) the Potency was “inactive”. In the case of `CCSCCc1nnc(NC(=O)Nc2cccc(C(F)(F)F)c2)s1`, the Potency is reported as inconclusive: 20.6 µM [falling, single point]. In the case of `CCOC(=O)c1c(C)[nH]c(C(=O)N2CCc3cc(OC)c(OC)cc3C2)c1C`, the Potency is reported as inconclusive: 16.4 µM [falling, single point]. In the case of `CC(=O)c1ccc(NC(=O)Cn2c3ncccc3c(=O)n2-c2ccc(C)cc2)cc1`, the Potency is reported as “inactive”. In the case of `O=C(Nc1ccc(F)cc1)c1nc(S(=O)(=O)Cc2ccccc2)ncc1Cl`, the Potency is reported as inconclusive: 18.4 µM [falling, single point]. With `Cc1ccc(CNC(=O)[C@]2(C(F)(F)F)C[C@H](CCc3ccccc3)CCCO2)o1` the Potency was “inactive”. In the case of `Cc1cccc(Cn2c(=O)n(CCCC(=O)NCc3ccco3)c(=O)c3ccccc32)c1`, the Potency is reported as inconclusive: 6.51 µM [falling, partial curve, poor fit]. For `O=C(NCCc1ccccc1)C(=O)NCC(c1cccnc1)N1CCN(c2ccc(F)cc2)CC1` (stereo unspecified), the Potency was inconclusive: 29.1 µM [falling, single point]. In the case of `CCOc1cc(/C=N\NC(=O)c2ccc(C)nc2)ccc1OC(=O)c1ccc(F)cc1`, the Potency is reported as inconclusive: 16.4 µM [falling, partial curve, poor fit]. For `O=C1C(Cl)=C(NC(=O)c2ccccc2)C(=O)C(Cl)=C1NC(=O)c1ccccc1`, the Potency was inconclusive: 23.1 µM [falling, single point]. For `CC1CCCCN1CC(O)COc1ccc(OCC(O)CN2CCCCC2C)cc1` (stereo unspecified), the Potency was inconclusive: 16.4 µM [falling, single point]. In the case of `CC(C)CCn1c(N)c(S(=O)(=O)c2cccs2)c2nc3ccccc3nc21`, the Potency is reported as inconclusive: 20.6 µM [falling, single point]. For `COc1cccc(/C=C/C(=O)NCc2ccc(S(N)(=O)=O)cc2)c1`, the Potency was inconclusive: 32.6 µM [falling, partial curve, poor fit]. With `COc1ccc(NC(=O)NNC(=O)COc2ccc(Cl)cc2C)cc1OC` the Potency was inconclusive: 29.1 µM [activator, single point].
